Assay results as given in PubChem BioAssay AID540276 (National Center for Advancing Translational Sciences (NCATS), 2011).
“And” between values parts separate entries of the source, which are not always exact repeats. Equal entries are not always repeated. Out of some 300,000 compounds screened, about 5,400 (1.8%) were called active. Inconclusive means that the source gave no clear call. Such entries were picked first, then a sample of the others. Calls come from the whole dose curve; tested in HEK293 cells. Potencies of inconclusive entries are doubtful fits and often do not repeat. More than one record can exist for a structure, and the calls need not agree.

assay: qHTS for inhibitors of binding or entry into cells for Marburg Virus; settings: Marburg virus pseudotyped entry inhibition, cell reporter; series mostly up to 37.8 µM
Potency is the fitted concentration of half-maximal effect.

Row | SMILES | Potency
1 | CCn1nc(C)c(CN2CCN(Cc3ccsc3)C(CCO)C2)c1C (stereo not drawn) | inactive
2 | C=CCOc1cccc(C2/C(=C(\O)c3ccc(F)cc3)C(=O)C(=O)N2CCN(C)C)c1 (stereo not drawn) | inactive
3 | CCCOC(=O)c1ccc(Cl)c(NC(=O)c2ccc(-c3ccccc3)cc2)c1 | inactive
4 | CCOC(=O)c1ccc(NC(=O)Cc2coc3cc(C)cc(C)c23)cc1 | inconclusive: 0.562 µM [inhibitor, full curve, poor fit]
5 | Cc1ccc(NC(=O)Cn2c(=O)n(Cc3ccc4c(c3)OCO4)c(=O)c3ccc(C(=O)NC4CCCCC4)cc32)cc1 | inactive
6 | CC(=O)Nc1cccc(NC(=O)COc2nncc3ccccc23)c1 | inactive
7 | CCCn1c(CCC(=O)Nc2ccccc2Cc2ccccc2)nc2cc(S(=O)(=O)N3CCOCC3)ccc21 | active: 12.6 µM
8 | COc1cccc(CNC(=O)Nc2cccs2)c1 | inconclusive: 6.31 µM [activator, partial curve]
9 | Cc1c(NS(=O)(=O)c2ccc(Br)s2)c(=O)n(-c2ccccc2)n1C | inconclusive: 6.31 µM [activator, single point]
10 | CC1(C)CCCN(C(=O)N2c3ccccc3Sc3ccccc32)C1 | inconclusive: 35.5 µM [inhibitor, single point]
11 | Cc1nccc(-c2cc(-c3ccc(Cl)cc3Cl)no2)n1 | inactive
12 | CCCCN1CCc2c([nH]c3c(C)cccc23)C1=O | inconclusive: 6.51 µM [activator, single point]
13 | CCOc1ccc2c(c1)C(C)=CC(C)(C)N2C(=O)Nc1ccccc1F | inconclusive: 6.31 µM [inhibitor, partial curve, poor fit]
14 | Cc1nnc(C)c2c(C)n(C(c3ccccc3)c3ccccc3)c(C)c12 | inconclusive: 13 µM [inhibitor, partial curve, poor fit]
15 | O=C(/C=C/c1ccccc1)NCCC1=CCCCC1 | inconclusive: 3.16 µM [activator, partial curve, poor fit]
16 | CN(C)CCOC1c2ccccc2-c2ccccc21 | inconclusive: 20 µM [inhibitor, single point]
17 | O=S(=O)(c1ccc(Cl)cc1)c1ccc(Cl)cc1 | inactive
18 | O=C(NCCOc1ccccc1F)c1ccccc1SCc1ccc(F)cc1 | inconclusive: 10 µM [inhibitor, partial curve, poor fit]
19 | Cc1nonc1C(=O)N/N=C/c1ccc(O)cc1O | inconclusive: 22.4 µM [inhibitor, partial curve, poor fit]
20 | CCOC(=O)c1c(C)[nH]c(C)c1C(=O)CSc1nc2ccccc2n1CCC#N | inconclusive: 35.5 µM [activator, single point]
21 | CC1=NNC(=O)C1CCC(=O)N/N=C(\C)c1ccc(Cl)cc1 (stereo not drawn) | inactive
22 | CCN(CC)CCCSc1nc2ccccc2s1 | inconclusive: 10 µM [inhibitor, single point]
23 | O=C(NCc1cccs1)c1ccc(CSc2nc3ccncc3n2Cc2cccc(F)c2)cc1 | inactive
24 | COc1cc(OC)c(C2C(C#N)=C(C)NC(C)=C2C#N)c(C(=O)O)c1 | inconclusive: 31.6 µM [activator, single point]
25 | COc1ccc(NC(=O)c2ccc(C)o2)c([N+](=O)[O-])c1 | inactive

Row | SMILES | Potency
26 | CC(=O)Oc1ccc(-c2ccc(C(=O)O)cc2)cc1 | inconclusive: 35.5 µM [inhibitor, single point]
27 | CCOC(=O)c1c(-c2ccc(C)cc2)csc1NC(=O)c1cc(=O)c2cc(C)c(C)cc2o1 | inactive
28 | CCSc1nnc(NC(=O)CSc2nccn2-c2cccc(C)c2)s1 | inconclusive: 0.794 µM [inhibitor, partial curve, poor fit]
29 | CCCCn1c(N)c(N(CCOC)C(=O)c2ccc(N3C(=O)CCC3=O)cc2)c(=O)[nH]c1=O | inactive
30 | CCn1c(NCc2ccccn2)nc2ccccc21 | inactive
31 | CCCCn1c(O)c(C(CC)=Nc2ccc(OC)cc2OC)c(=O)[nH]c1=O | inconclusive: 16.4 µM [inhibitor, single point]
33 | CC1CCN(S(=O)(=O)c2csc(C(=O)Nc3ccccc3)c2)CC1 | inconclusive: 23.1 µM [inhibitor, partial curve, poor fit]
34 | Cc1c(Cl)cccc1NC(=S)NCCc1ccc(C(F)(F)F)cc1 | active: 10 µM
35 | CC1CCCN(C(=S)Nc2ccc(F)cc2)C1 (stereo not drawn) | inactive
36 | CCOC(CCn1c(SCC(=O)NC2CCCC2)nc2ccccc2c1=O)OCC | inconclusive: 12.6 µM [inhibitor, single point]
37 | Cc1ccc(N2C(=O)N(CC(=O)Nc3cc(C)cc(C)c3)C(=O)C2C)cc1 (stereo not drawn) | inconclusive: 15.8 µM [inhibitor, partial curve, poor fit]
38 | Cc1[nH]nc2c1C(c1ccc(F)cc1)C(C#N)=C(N)O2 (stereo not drawn) | inactive
39 | O=C1c2ccccc2C(=O)c2cc(N3CCCCC3)ccc21 | active: 3.98 µM
40 | CC(C)(C)C(=O)COC(=O)c1cc2ccccc2cc1O | inactive
41 | CCN(Cc1ccccc1)C(=O)Nc1ccc2c(c1)N(C)C(=O)c1ccccc1S2 | inconclusive: 35.5 µM [inhibitor, single point]
42 | COc1cc(NC(=O)c2cc(OC)c(OC)c(OC)c2)ccc1NC(=O)c1cccs1 | inactive
43 | COc1ccc(Cn2c(SCC#N)nc3ccc(N4CCOCC4)cc3c2=O)cc1 | inactive
44 | CC(C)CCN(CCC(C)C)C(CO)(CO)CO | inconclusive: 35.5 µM [activator, partial curve, poor fit]
45 | Cc1ccc(N(C)S(=O)(=O)c2ccc3[nH]cc(C(=O)O)c(=O)c3c2)cc1C | inactive
46 | CC(c1ccccc1C(O)c1ccccc1)N(C)C (stereo not drawn) | inactive
47 | OC1CCCN(c2c3c(nc4cc(-c5cccc(F)c5)nn24)CCCC3)C1 (stereo not drawn) | inconclusive: 25.1 µM [inhibitor, single point]
48 | O=C(c1cccc(NS(=O)(=O)c2cccc(F)c2)c1)N1CCN(c2ccccc2)CC1 | inconclusive: 0.398 µM [inhibitor, partial curve, poor fit]
49 | CCc1nn(CC(=O)Nc2c(C)cc(C)cc2C)c(=O)c2cc3sccc3n12 | inconclusive: 28.2 µM [activator, single point]
50 | COc1cccc(CC(NC(C)=O)C(=O)NC2CCN(c3c(Cc4ccccc4)c(C)nc4ncnn34)CC2)c1OC (stereo not drawn) | inconclusive: 1.46 µM [inhibitor, partial curve, poor fit]

From compound 36 to 50, copied from above:
Row | SMILES | Potency
36 | CCOC(CCn1c(SCC(=O)NC2CCCC2)nc2ccccc2c1=O)OCC | inconclusive: 12.6 µM [inhibitor, single point]
37 | Cc1ccc(N2C(=O)N(CC(=O)Nc3cc(C)cc(C)c3)C(=O)C2C)cc1 (stereo not drawn) | inconclusive: 15.8 µM [inhibitor, partial curve, poor fit]
38 | Cc1[nH]nc2c1C(c1ccc(F)cc1)C(C#N)=C(N)O2 (stereo not drawn) | inactive
39 | O=C1c2ccccc2C(=O)c2cc(N3CCCCC3)ccc21 | active: 3.98 µM
40 | CC(C)(C)C(=O)COC(=O)c1cc2ccccc2cc1O | inactive
41 | CCN(Cc1ccccc1)C(=O)Nc1ccc2c(c1)N(C)C(=O)c1ccccc1S2 | inconclusive: 35.5 µM [inhibitor, single point]
42 | COc1cc(NC(=O)c2cc(OC)c(OC)c(OC)c2)ccc1NC(=O)c1cccs1 | inactive
43 | COc1ccc(Cn2c(SCC#N)nc3ccc(N4CCOCC4)cc3c2=O)cc1 | inactive
44 | CC(C)CCN(CCC(C)C)C(CO)(CO)CO | inconclusive: 35.5 µM [activator, partial curve, poor fit]
45 | Cc1ccc(N(C)S(=O)(=O)c2ccc3[nH]cc(C(=O)O)c(=O)c3c2)cc1C | inactive
46 | CC(c1ccccc1C(O)c1ccccc1)N(C)C (stereo not drawn) | inactive
47 | OC1CCCN(c2c3c(nc4cc(-c5cccc(F)c5)nn24)CCCC3)C1 (stereo not drawn) | inconclusive: 25.1 µM [inhibitor, single point]
48 | O=C(c1cccc(NS(=O)(=O)c2cccc(F)c2)c1)N1CCN(c2ccccc2)CC1 | inconclusive: 0.398 µM [inhibitor, partial curve, poor fit]
49 | CCc1nn(CC(=O)Nc2c(C)cc(C)cc2C)c(=O)c2cc3sccc3n12 | inconclusive: 28.2 µM [activator, single point]
50 | COc1cccc(CC(NC(C)=O)C(=O)NC2CCN(c3c(Cc4ccccc4)c(C)nc4ncnn34)CC2)c1OC (stereo not drawn) | inconclusive: 1.46 µM [inhibitor, partial curve, poor fit]

Continuation:

Row | SMILES | Potency
51 | Cc1sc2ncnc(Sc3nnnn3-c3ccc(Cl)cc3)c2c1C | inconclusive: 29.1 µM [inhibitor, single point]
52 | Cc1nc(C(=O)N2CCCC(Nc3ccc(C)c(C)c3)C2)cs1 (stereo not drawn) | inactive
53 | CCOc1ccc(CNC(=O)Cn2nc(C)c3sc4ccccc4c3c2=O)cc1 | inconclusive: 17.8 µM [activator, partial curve, poor fit]
54 | NCC(O)C1CCCCCCC1 (stereo not drawn) | inactive and active: 7.08 µM
55 | COC(=O)c1[nH]c2cc(OC)ccc2c1NC(=O)CCN1CCN(c2ccccc2)CC1 | inactive
56 | O=C1CCCN1CN(C(=O)c1ccc2c(c1)OCO2)c1cccc(Cl)c1 | inconclusive: 5.8 µM [inhibitor, partial curve, poor fit]
57 | O=c1cnn(Cc2ccc(Cl)c(Cl)c2)c2ccccc12 | inconclusive: 35.5 µM [inhibitor, single point]
58 | Cc1cc(O)cc2c1C1CCC3(C)C(=O)CCC3C1C=C2 (stereo not drawn) | inconclusive: 7.94 µM [activator, partial curve]
59 | COc1ccc(NS(=O)(=O)c2ccc(C(=O)N(C)Cc3cccs3)cc2)cc1 | inconclusive: 11.2 µM [inhibitor, partial curve, poor fit]
60 | Cn1c(SCC(=O)Nc2ccc3c(c2)OCCO3)nnc1-c1cccnc1 | inconclusive: 35.5 µM [inhibitor, single point]
61 | CCOC(=O)c1c(C)c(C(=O)NCCc2ccc(OC)cc2)c(C)n1CC | inactive
62 | Cc1cc(C(=O)CC#N)c(C)n1-c1ccc(OC(F)F)cc1 | inactive
63 | CCc1noc(C)c1C(=O)OCC(=O)Nc1nc(-c2ccc(F)c(F)c2)cs1 | inconclusive: 35.5 µM [inhibitor, single point]
64 | c1csc(-c2nc3ccccc3s2)c1 | inconclusive: 20 µM [activator, partial curve, poor fit]
65 | CC(C)(C)C1CCc2c(sc3c2C(=O)NC(c2ccco2)N3)C1 (stereo not drawn) | inconclusive: 2.06 µM [activator, partial curve, poor fit]
66 | COc1cc(C)c(S(=O)(=O)NC2CC(C)(C)NC(C)(C)C2)cc1C | inconclusive: 35.5 µM [inhibitor, single point]
67 | c1ccc2c(c1)Cn1c-2nc2ccccc21 | inactive
68 | COc1cc(NC(=O)CCc2c(C)nc3c(c(C)nn3-c3ccccc3)c2C)cc(OC)c1OC | inactive
69 | COc1nc(NCCN2CCOCC2)nc(Nc2ccccc2)n1 | inconclusive: 2.51 µM [activator, full curve, poor fit]
70 | NP(=O)(Oc1ccccc1)Oc1ccccc1 | inconclusive: 11.2 µM [activator, partial curve]
71 | CCC(C)OC(=O)C[N+](C)(C)CCOC1CC2CCC1(C)C2(C)C (stereo not drawn) | inconclusive: 10 µM [inhibitor, partial curve, poor fit]
72 | Cc1ccc(NC(=O)COc2ccc(CCO)cc2-n2nc3ccccc3n2)cc1C | inconclusive: 15.8 µM [inhibitor, single point]
73 | COc1cccc2cc(-c3nc(-c4cccs4)no3)c(=O)oc12 | inconclusive: 5.62 µM [activator, single point]
